# From publication PMC10127613 (mBio, 2023)
# Biological target: T1, Clr (Sinorhizobium meliloti) (UniProt Q92SD2)
# T1 sequence (looked up): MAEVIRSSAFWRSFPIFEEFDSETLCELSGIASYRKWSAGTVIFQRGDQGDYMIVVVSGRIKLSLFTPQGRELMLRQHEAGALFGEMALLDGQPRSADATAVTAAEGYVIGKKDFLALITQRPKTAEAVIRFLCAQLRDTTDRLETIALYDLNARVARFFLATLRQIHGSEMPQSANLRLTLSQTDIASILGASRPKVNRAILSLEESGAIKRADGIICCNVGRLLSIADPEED
# Experiment: EMSA
# Settings: 1 mM cAMP, EMSA: 2 mM HEPES pH 7.0, 30 mM NaCl, 50 mM KCl, 850 ng salmon sperm DNA, 1 ug BSA, 20 ng Cy3-DNA, 3 ug Clr in 10 uL, room temperature, recombinant protein, residues 1-234, protein details: C-terminal His6 (pET36b, NdeI/XhoI), label: 5'-Cy3 on reverse strand
row,Sequence,binding result
1,AGCGGATAACAATTTCACACAGGAAACAGCATATGACCATGATTACGCCAAGCTCGAAATTAACCCTCACTAAAGGGAACAAAAGCTGGAGCTCTTAAGCTTAGGTGAGCTTTTCGAAGTCCGGCAGCTGGTAGGTCGAGCAGGTCGGGGTGAAAGCACCCGGCAGCGAAAACAGCACGACGCGCTTGCCGGCGAAATAGTCGTCCGAGGTAACGTCCTGCCAGCGGAACGGATTGGAACCGCCGACGGACTCGTCGCGGACGCGGGTGCGGAAGGTTACAGCGGGAACTTTTCTGCCGAGCATCATCATCTCCTAAAAACTGGCTGCCGGCGGCGCAGTCTTGGGAGGACAGGCGCGCCGGCGGAAATCGAGTGCCCTTCCTAACGAAATTTCCGCTGCAGTGCAGCATCAAAGCGACGGAGACCTCCCGCATGGCAGCCATGCGGAAGGCGCATGACTGCGGGGCAATTAAACGAGCTGCGGCGACAGTCCCCGATCCGGTAGGCCTTGATGATATTGCTGGCAATGAGGCAATTTGCACGGACAGCGCCGCACCTTGAAGTGTAACGCTTAGTGTTATATATAGACCGGTAGGATGGCGTCTAGACTGCAGATGGTGAGCAAGGGCGAGGAGCTGTTCA (double strand) [SMc01995],binds
2,AGCGGATAACAATTTCACACAGGAAACAGCATATGACCATGATTACGCCAAGCTCGAAATTAACCCTCACTAAAGGGAACAAAAGCTGGAGCTCTTAAGCTTAGTCGAGCGCGGCTTCAAATCGGGTGAGATGCGTTCACGCGACTCGAAGTACGCGCCGACCGATATCGATTGCCCTTCCGCCAGCGGTCCGCTCCTCCCGAGCCCGCATGGCGACGTTGTAACATTTGTCTTTTTTTCGGGCTGCCGCAACCGTTTCGCGCCACAAGGGGCAAAAAAATGCGAGCGCGTATGTAACGCCGGAAACAGCGCCTTCATGTTCCGTTCAGGAAAGATCGCATTATGTTGCATAAGAACGATCTCGCCGTATCCGTGCATTTTCCTCGGCGGCGGGTTATGTTCCGAATGCAAGTTCAAGTGGAGGGCCGCGGTTCGCACCCTCCCATCACTATGGGGCGGACGAGGCGGCACGCTGAATCCGTCGAAATCGGAGAGGACATCATGAAGAAAGCCATCGCGCTTGTGTCTAGACTGCAGATGGTGAGCAAGGGCGAGGAGCTGTTCA (double strand) [SMc03100 / SMc03101],binds
3,AGCGGATAACAATTTCACACAGGAAACAGCATATGACCATGATTACGCCAAGCTCGAAATTAACCCTCACTAAAGGGAACAAAAGCTGGAGCTCTTAAGCTTATTGTTGTTGCCTGACCCGCCTGACCCACCTGAACTTCCCATCGCAGTTCTCCAATCCAGTAACGTTTCTACCTCTGATAGGTCGCAATCCATTCAAACGTTAGCAAAATGCAGTACGACCAAATAAATCACGTAGTTGATTATGGCATAGATGAGAAGGGTAACCCATTTTGGCGGAGATAACCCTGCAATTTTTATAATATAATCCACGATTGTCATCGACAAAAACACAATAATGGCGGCAATTATAGGGTATAAACTCATCTAGATCCCCGATAGCAGAGCTATAGCGTCTCCTATCTCAGCATAAAGACGCTGATGGTCAATAAACAATATATTGTACTTTTTGGTTGAGGAGTCAAATTGATTCTGGTATCAGGGATAATTGCGGGAGACGATCTTCGAGTGTGGTGGGGGATACTTACGAAGTGGTGGATAATCTCCGATTAGCACCTCTTTCGACTAGACTGCAGATGGTGAGCAAGGGCGAGGAGCTGTTCA (double strand) [SMc02661],no binding
4,AGCGGATAACAATTTCACACAGGAAACAGCATATGACCATGATTACGCCAAGCTCGAAATTAACCCTCACTAAAGGGAACAAAAGCTGGAGCTCTTAAGCTTCAATGCCTGCACGAGTACATCGAGATGCCCGTTGGTGATCGGATCGAAGGAGCCGGGATAGAAAGCCGTGGTCATCGCGCCTGTTTCCGTTTGGTGAAGCCTTTTGTCACGGACGGCCGCGGACCGCAAGGGTTGTACGATCCTTGCGCCCTGTTCCCCGGGAAACAGCGGCGGCAAAAGGCTGAATGCTAGATGAATGCAACGTTCAAGAGGGTTTCACACTGCAAGCCGTAACGTGAACCCAAGTTAACGGGAACTTTTTTGAGTACATGCCGTTTAAACCGACGAAAGGAGACGGCCATGGGACTTGCTCTATCTAGACTGCAGATGGTGAGCAAGGGCGAGGAGCTGTTCA (double strand) [coaD / SMc06520],binds
5,AGCGGATAACAATTTCACACAGGAAACAGCATATGACCATGATTACGCCAAGCTCGAAATTAACCCTCACTAAAGGGAACAAAAGCTGGAGCTCTTAAGCTTCATCGATGAGGGGGACATCGTTCTGGCGATGCTGTGGCATGCCCGATCTCTTATTGAACTGATTGCCGAGCGGCGGCGTGCCGGCAATCTGGTCAGGAATCGGGTGGAAACACGCCGGCAATTGGCGAGACTTCCAGCCAGGGTGCGAAACGACCTGTTACCCGCGGAACAGCAGCCGATCAGAGCATCCGATAGAAAGGCTATAGCGGGCGAAATCAATCACGATGTTTGATGAATTACATCAAACATATTCGTTTGAATGATCAATCGCGTTGCACCATAACGTCCATGGTCGCGACCTTTTGAGGAACTCAGAAGGAACCAGCAATGTCTATGAACGAGCATTCGTCATCCGCATCTAGACTGCAGATGGTGAGCAAGGGCGAGGAGCTGTTCA (double strand) [SMc04163 / SMc04164],binds
6,AGCGGATAACAATTTCACACAGGAAACAGCATATGACCATGATTACGCCAAGCTCGAAATTAACCCTCACTAAAGGGAACAAAAGCTGGAGCTCTTAAGCTTCCGACTGGCACATCTGAGTTAGGAAAGCAGACCTGAACCAGGAAAGAGGTTTCCAGCGGCCGGCAGCCCCAAGGCTCTGCCGGTCAGAATGGATCGACTGAACCCGCTTTCGCTAACCATTCTTTACACCGCGCATGCGTTCTCTTTGATGAAGGACCAGCTCCTCATCAAGCATCGACGTGCCGCGAAGACGTCGGTGCATTCAGAATCTTTCGCAAGGGCAAACGCTCACTTGGGGCGTTATCACCCTGCAGACCGGTTGGGCTCGTTGACAGTTTCATGGGACAAGAAGGGAAACGGGACGAAGTACCCCCGATCGAGATCTCCGGGAAATCGCCAAACTTGTTCCCTTAGGAACTGCGGGGATTTTCAGTAACTGTCATAAATGAGAGCCTAGAACGGAAATCTGCAGAAACAGCTCGTGCACCAAAGGGAAAGCGCACATGACGTGAATGGACTAGACTGCAGATGGTGAGCAAGGGCGAGGAGCTGTTCA (double strand) [SMa06349],binds
7,AGCGGATAACAATTTCACACAGGAAACAGCATATGACCATGATTACGCCAAGCTCGAAATTAACCCTCACTAAAGGGAACAAAAGCTGGAGCTCTTAAGCTTCCGCCGAAATATGGACGAACACGTCAGCGGCGCCGTCATCTGGCTGGATGAAACCGAAGCCCTTGGTGCTGTTGAACCACTTTACCGTTCCAGAAGCCACGTCGATGTCCTTTCAATAGCCATGGAAAACCGCCACCGCATAAAAACGGTGTATCAAAACCGATGTTGTCAGGATTTTCGTGACGATGCGCCTTGGCGCAGAAACAAATATCGTCGATCAATATCGATACCGAGCTATGTAGGTCATCATTGTGTTTCTTACAAGGCACAATTTTATTTTCTTTCGGGAGAAGACTATCGGCGCGACCGCAGGCGGCCCGGCCAAGGCAGCAATGCTGCAATTAGCTTGTGGACTTTCCCCCAACGGGCCTTAAATCTCCGCACTGGACCAACTCTCAGGACAATCCCCCATGCACGATCCGATCCCGACCATCGCTTTTCCGTCTAGACTGCAGATGGTGAGCAAGGGCGAGGAGCTGTTCA (double strand) [cspA2 / SMc01429],no binding
8,AGCGGATAACAATTTCACACAGGAAACAGCATATGACCATGATTACGCCAAGCTCGAAATTAACCCTCACTAAAGGGAACAAAAGCTGGAGCTCTTAAGCTTCCGGAAGGCACGGAAATGGTCATGCCGGGCGACAACGTCACGGTTGACGTCGAGCTGATCGTGCCGATCGCGATGGAAGAAAAGCTGCGCTTCGCTATCCGCGAAGGCGGCCGCACCGTCGGCGCAGGCATCGTCGCCTCCATCGTCGAGTAACAAGAAAACGGCTTGAGCCGTTTCGGCAGGGACATGGTCCGCCATGTCCCTGCGATTTTTGAAAAGAAGCGGCTAAGCGAAACGAATACTTCAAGTGTGTGCTTCGTGAGCACACCGGAAAACACGAGCAAGGACAAGTCGAATGAACGGCCAGAATATCCGCTCTAGACTGCAGATGGTGAGCAAGGGCGAGGAGCTGTTCA (double strand) [rpsJ],binds more weakly
9,AGCGGATAACAATTTCACACAGGAAACAGCATATGACCATGATTACGCCAAGCTCGAAATTAACCCTCACTAAAGGGAACAAAAGCTGGAGCTCTTAAGCTTCCGTCTCGATCAGATTCGGGATGAGATCGGCGCGGCGCTTCAACTGCACGTCGATGCCGGACCAGGCCTCCTCGGCCATCTGCCGCGCCTTGACGAGGCCGTTATAGACGAAGACGAGATAAAGAATAACGGCGACGCCAATTGCCAGCCCGATCATCAAACCCTCCTTTGGATCACGGCGATCCTACTGCATGCTTTCTTAAATTCCATTCGATTCAAGAACAAACCAACGTTCTACAGCGGCCGATCACAAGACCGCCCCTGCCCCTGCCCAGCAGGTCGTGCCGACGCCTGCAGCCTCAGGCTGTTCCACCGGTAACGGCAACGCGTCGGCGGATGCTCGATAGTCTATTCATCGAACAACCACAACGCTTAGTGCCCGCCATGAACACGCCCGTGAGCTTCTCTAGACTGCAGATGGTGAGCAAGGGCGAGGAGCTGTTCA (double strand) [SMc00853 / SMc00854],binds
10,AGCGGATAACAATTTCACACAGGAAACAGCATATGACCATGATTACGCCAAGCTCGAAATTAACCCTCACTAAAGGGAACAAAAGCTGGAGCTCTTAAGCTTCCTTGGCCATGCTGCCTTGTAAAGGGGCCGCGGGGGCTCGGAACACCTACAATCGTTTGAATTGCCGCCGAGCGGCAAGCTCCGACCGGGCATCGCCGACATGGGTTTCCGGCCGGCAGCGATGTGTCCTTTCCGTCACATCCGCAATCTTCCGTTGCGCGTCTTCCTTGTGTCGCAGGGAACATCGGCATCGCGCCCGGCCGGGCAAAGTAGATGCAAATCAGATTTTTAGGCGAAGGGGCATGGCTGAAAACGGATCGCGGCGAGACGCGGGGCGCGGATTCGGGAGGCTTCGTTTCCTTTTCATTCACCATCCTTTTCTATAACTCTCGGAGCACGAGGGCGTGGCGAGAATCTGGCGGCGGCTGCATTCGGCGGCGACGCAATACGGGGACGTTTGTATCTATGAGAATCATCAAGTCGGCAGCGTCTAGACTGCAGATGGTGAGCAAGGGCGAGGAGCTGTTCA (double strand) [fumC / SMc00150],binds

# No signal at the amounts used counts as a negative. Where a protein sequence is shown, tags need not be part of it. Weaker means in comparison with the reference protein, sequence or condition of that experiment.
